The record followed here is paper PMC6904456.

For the series, the system named is Thrombin (THR). Nature of the series: immunochemiluminescence on flat gold. Particulars: 1-200 nM thrombin, buffer; 5' BiotinTEG; Immobilization in 10 mM phosphate, 138 mM NaCl, 2.7 mM KCl, pH 7.4; commercial protein; single-stranded DNA.

Construct, isoform or probe ends are uncertain for at least one entry. At least one verdict was read from the data and is not stated in words by the source.

As to “AGTCCGTGGTAGGGCAGGTTGGGGTGACT [TBA29 (biotin-TBA29 thrombin aptamer)]”, the binding result is reported as “binds”.
